Source: article PMC6438568
These are yes or no findings as the source states them, for the method shown. Binding seen in cells or lysates may run through a third protein. A yes stands for co-enrichment or nearness to the bait. Other partners may have been found. Values belong to the molecule of their own block, whether it stands above or below them.

Amino acid sequences for entries named in this document (tags omitted). A change or cut given only in a name is not applied to a line headed by its entry.
UniProt C8V7D1: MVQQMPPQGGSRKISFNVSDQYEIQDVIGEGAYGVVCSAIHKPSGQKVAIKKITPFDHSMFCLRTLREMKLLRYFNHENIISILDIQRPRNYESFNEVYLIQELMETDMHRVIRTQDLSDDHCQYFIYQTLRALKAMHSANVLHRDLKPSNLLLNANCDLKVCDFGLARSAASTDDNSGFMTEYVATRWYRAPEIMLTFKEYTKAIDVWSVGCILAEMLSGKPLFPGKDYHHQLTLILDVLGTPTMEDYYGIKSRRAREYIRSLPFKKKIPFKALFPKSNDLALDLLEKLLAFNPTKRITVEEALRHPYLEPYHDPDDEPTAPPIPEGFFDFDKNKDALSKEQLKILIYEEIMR

Legend:
[1] = molecular target: SipB (AN1010), SIKE-like protein (Aspergillus nidulans) (UniProt Q5BEM0); experiment: affinity purification with mass spectrometry; TAP of Sip-TAP baits (SipA, SipB, SipC, SipD, SipE) from crude extracts of strains without StrA (strAΔ), LC-MS/MS; vegetative growth 24 h in liquid GMM
[2] = molecular target: SipB (AN1010), SIKE-like protein (Aspergillus nidulans) (UniProt Q5BEM0); experiment: affinity purification with mass spectrometry; tandem affinity purification (TAP) of the TAP-tagged bait (StrA, SipA, SipB, SipC, SipD or SipE, native locus) from A. nidulans crude extracts, LC-MS/MS; vegetative growth 24 h in liquid GMM at 37°C, StrA present; StrA-TAP also from 6 h light- and dark-induced cultures and in the absence of SipA; TAP of the WT strain as non-specific control; two biological replicates
[3] = molecular target: SipD (AN4632), SLMAP-related protein (Aspergillus nidulans) (UniProt Q5B498); experiment: affinity purification with mass spectrometry; TAP of Sip-TAP baits (SipA, SipB, SipC, SipD, SipE) from crude extracts of strains without StrA (strAΔ), LC-MS/MS; vegetative growth 24 h in liquid GMM
[4] = molecular target: SipD (AN4632), SLMAP-related protein (Aspergillus nidulans) (UniProt Q5B498); experiment: affinity purification with mass spectrometry; tandem affinity purification (TAP) of the TAP-tagged bait (StrA, SipA, SipB, SipC, SipD or SipE, native locus) from A. nidulans crude extracts, LC-MS/MS; vegetative growth 24 h in liquid GMM at 37°C, StrA present; StrA-TAP also from 6 h light- and dark-induced cultures and in the absence of SipA; TAP of the WT strain as non-specific control; two biological replicates
[5] = molecular target: MAPK MpkB, GFP fusion (Aspergillus nidulans) (UniProt C8V7D1); experiment: affinity purification with mass spectrometry; GFP pull-down of MpkB-GFP from A. nidulans crude extracts, LC-MS/MS; vegetative growth 24 h at 37°C, in the presence or absence of StrA; one or two biological replicates

binding [1]: binds
binding [2]: binds
Molecule: SipD (AN4632), SLMAP-related protein (from UniProt Q5B498)

binding [3]: binds
binding [4]: binds
Molecule: SipB (AN1010), SIKE-like protein (from UniProt Q5BEM0)

binding [5]: binds
B1: transcription factor SteA (protein, UniProt O74252 1-692)
chain: MYSQHGAPMAPPQKPETFMLSNEAQQSLPHDAQVALQQVDNLKYFLLSAPVDWQPDQLIRRFLLPTGDYISCVLWSNLFHISGTDIVRCLAFRFQAFGRPVKNSKKFEEGIFSDLRNLKAGTDATLEEPKSPFLDFLYKNNCIRTQKKQKVFYWYSVPHDRLFLDALERDLKREKMGQEATTVAVSEPALSFEFDSSQSLYEQLTKAQQANSSSFAAHASTTYGQSASPVVRTVDAMPPPQMAPQMAPPSIPLLTDESANSQMYTSIPMPNPIPQNLIKREADYGAIQYDRNGMPIARIHQRHSSMPTFVEYSPAPSFVSSQYEDYSNRGLSFEPVTPPQHSSHIGPEPAYIANEDTGLYTAIPEMSTGSGFNPMMHLPPSNLASAHFPTPARTFHSNVYSVLEGSPTYKQRRRRSSIPPGAANPVTTGTHSPAPALSYAAHKPSDLRRSVSSSVAPGDTDDSRHESLHRSVNSTYTATLPQKNLMHEMSRNGTPLSSVGEHREQSSIPLTQAEDLPALPANGTVESGAPNGVGHKSDRYATGPVRRARSATMMELGPYPQKSHSCPIPSCGRLFKRLEHLKRHVRTHTQERPYPCPYCNKAFSRSDNLAQHRRIHEAQQDGQPLVHEDDLENDDNESVSHDEDESPSESVHPAVPGVHGMTSMPSSVALQSTMGSMMGSHMIAPQLLQQQI
